In PubChem BioAssay AID720533 (National Center for Advancing Translational Sciences (NCATS), 2013):
Several values for one entry are separate records, joined by “and”; a condition that tells them apart may be missing. Equal values may be shown once. In all, about 18,000 compounds went through this assay and about 750 (4.2%) were called active. Inconclusive results, whose numbers are uncertain, are shown with a selection of clear calls. Calls come from the whole dose curve; tested in HEK293 cells. Potencies of inconclusive entries are doubtful fits and often do not repeat.

Assay: qHTS for Inhibitors of binding or entry into cells for Lassa Virus
Conditions: Lassa virus pseudotyped entry inhibition, cell-based qHTS; activity change, negative = inhibition: at 49.2 µM (top of the series) unless noted
% is set by controls: 0 for no effect and ±100 for the full control effect; potency is the fitted concentration of half-maximal effect.

Row | Compound | Potency | activity change, negative = inhibition
1 | C=CC[C@@H]1/C=C(\C)C[C@H](C)C[C@H](OC)[C@H]2O[C@@](O)(C(=O)C(=O)N3CCCC[C@H]3C(=O)O[C@H](/C(C)=C/[C@@H]3CC[C@@H](O)[C@H](OC)C3)[C@H](C)[C@@H](O)CC1=O)[C@H](C)C[C@@H]2OC | inconclusive: 6.31 µM [inhibitor, partial curve] and inconclusive: 11.2 µM [inhibitor, partial curve] and inconclusive: 12.6 µM [inhibitor, single point] | 
2 | COc1ccc(CN2CCC(n3cc(C(=O)N4CCCC4)nn3)CC2)c(OC)c1C |  | inactive: -6.57%
3 | O=Nc1c(-c2c(O)[nH]c3ccccc23)[nH]c2ccccc12 | inconclusive: 31.6 µM [inhibitor, single point] | 
4 | CC(N)Cc1c[nH]c2ccc(O)cc12 (stereo not drawn) |  | inactive: -4.86%
5 | C[C@@H]1CC[C@H]2C(=O)O[C@@H](Cc3ccccc3)CN2[C@@H]1c1ccc(Br)cc1 |  | inactive: 12.1% [at 8.59 µM]
6 | O=C1CN=C(c2ccccc2)c2cc(Cl)ccc2N1CC1CC1 | inconclusive: 35.5 µM [inhibitor, single point] | 
7 | CC(=O)O[C@H]1C[C@H](O[C@H]2[C@@H](O)C[C@H](O[C@H]3[C@@H](O)C[C@H](O[C@H]4CC[C@@]5(C)[C@H](CC[C@@H]6[C@@H]5C[C@@H](O)[C@]5(C)[C@@H](C7=CC(=O)OC7)CC[C@]65O)C4)O[C@@H]3C)O[C@@H]2C)O[C@H](C)[C@H]1O[C@@H]1O[C@H](CO)[C@@H](O)[C@H](O)[C@H]1O | active: 0.0501 µM | 
8 | COc1ccc(CNc2ncnc3ccc(-c4ccccc4CN(C)C)cc23)c(OC)c1 | inconclusive: 35.5 µM [inhibitor, single point] | 
9 | CN(C)CCOC1=Cc2ccccc2Sc2ccc(Cl)cc21 | inconclusive: 28.2 µM [inhibitor, partial curve, poor fit] | 
10 | C#C[C@]1(OC(=O)CCCCCC)CC[C@H]2[C@@H]3CCC4=CC(=O)CC[C@@H]4[C@H]3CC[C@@]21C | active: 31.6 µM | 
11 | OC(CCN1CCCCC1)(c1ccccc1)C1CC2C=CC1C2 (stereo not drawn) | active: 22.4 µM | 
12 | COc1cc(=O)n2c(c1C(=O)NC(C)c1ccco1)CCN(Cc1cc(C)ccc1C)CC2 (stereo not drawn) |  | inactive: -2.23%
13 | COC(=O)[C@@H]1CCCN1Cc1ccc2c(c1)CN(Cc1cccn1-c1ncccn1)CCO2 |  | inactive: -17.7%
14 | COc1ccc(COc2cc(-c3cccc(OC)c3)nc3ccc(NC(=O)c4cccnc4)cc23)cc1 | inconclusive: 11.2 µM [inhibitor, partial curve] | 
15 | C[C@@H](Cc1ccccc1)NCCC(c1ccccc1)c1ccccc1 | inconclusive: 8.91 µM [inhibitor, single point] | 
16 | C=C(NC(=O)C(=C)NC(=O)c1csc(C2=N[C@@H]3c4csc(n4)[C@H]4NC(=O)c5csc(n5)[C@H]([C@](C)(O)[C@@H](C)O)NC(=O)[C@H]5CSC(=N5)C(=CC)NC(=O)C([C@@H](C)O)NC(=O)c5csc(n5)[C@]3(CC2)NC(=O)[C@H](C)NC(=O)C(=C)NC(=O)[C@H](C)NC(=O)C([C@@H](C)CC)NC2C=Cc3c([C@H](C)O)cc(nc3C2O)C(=O)O[C@@H]4C)n1)C(N)=O (stereo partly drawn) | inconclusive: 14.1 µM [inhibitor, single point] | 
17 | CN(C)C(=O)c1ccc(-c2nc(NCc3cccnc3)c3ccccc3n2)cc1 | inconclusive: 35.5 µM [inhibitor, single point] | 

Row | Compound | Potency | activity change, negative = inhibition
18 | Cc1c(C(=O)NCC2(N3CCCCC3)CCCC2)cnn1-c1nccc(-c2ccccc2F)n1 |  | inactive: -8.98%
19 | Cc1ccc2nc(SCC(=O)N3CCC4(CC3)CC4C(=O)Nc3ccc(F)c(F)c3)[nH]c2c1 (stereo not drawn) |  | inactive: -4.1%
20 | C[C@H]1[C@H](c2ccccc2)Oc2ccc(Cl)cc2S(=O)(=O)N1C[C@@H]1CCCN1C(=O)OC(C)(C)C | inconclusive: 0.0281 µM [inhibitor, single point] | 
21 | CCCCCCCCCCCCC/C=C\[C@@H](O)[C@H](CO)NC(C)=O | inconclusive: 35.5 µM [inhibitor, single point] | 
22 | Oc1c(I)cc(I)c2cccnc12 | inconclusive: 31.6 µM [inhibitor, single point] | 
23 | CCc1nc(CN2CCOc3ccc(C(O)C4CCCCC4)cc3C2)c(C)[nH]1 (stereo not drawn) | inconclusive: 11.2 µM [inhibitor, partial curve] | 
24 | C=CCC12OC3(OC)CC1[C@H](C)[C@@H](c1ccccc1)C2[C@]3(O)CC=C (stereo partly drawn) |  | inactive: -0.778% [at 8.59 µM]
25 | O=C(NCc1nnc2n1CCN(Cc1cc(F)cc(F)c1)CC2)c1cccc(F)c1 | inconclusive: 5.01 µM [inhibitor, full curve] | 
26 | N=C(N)N1Cc2ccccc2C(O)C1 (stereo not drawn) |  | inactive: 0.186%
27 | COc1cc(NS(C)(=O)=O)ccc1Cc1c2ccccc2nc2ccccc12 | inconclusive: 1.78 µM [inhibitor, full curve] | 
28 | COC(=O)c1cc(CNC(=O)c2ccccc2)cc(NC(=O)c2ccccc2OC)c1 | inconclusive: 10 µM [inhibitor, single point] | 
29 | CC[C@H](C)[C@H]1O[C@]2(C=C[C@@H]1C)C[C@@H]1C[C@@H](C/C=C(\C)[C@@H](O[C@H]3C[C@H](OC)[C@@H](O[C@H]4C[C@H](OC)[C@@H](O)[C@H](C)O4)[C@H](C)O3)[C@@H](C)/C=C/C=C3\CO[C@@H]4[C@H](O)C(C)=C[C@@H](C(=O)O1)[C@]34O)O2 | inconclusive: 35.5 µM [inhibitor, single point] | 
30 | CC1=C(O)C(=O)C=C2C1=CC=C1[C@]2(C)CC[C@@]2(C)C3C[C@](C)(C(=O)O)CC[C@@]3(C)CC[C@@]12C (stereo partly drawn) | active: 4.47 µM | 
31 | COc1ccc(C(OCCN2CCC[C@@H](C(=O)O)C2)(c2ccc(OC)cc2)c2ccc(OC)cc2)cc1 | active: 6.31 µM | 
32 | CC(=O)c1ccc(-c2ccc(-c3cc(=O)oc4c(C(C)C)ccc(C)c34)cc2)cc1 | inconclusive: 14.1 µM [inhibitor, partial curve] | 
33 | COc1cc(OC)c2c(-c3cccc(-c4ccc(CO)cc4)c3)cc(=O)oc2c1 | inconclusive: 3.98 µM [inhibitor, partial curve] | 

Taken from above:
Entry for COc1cc(NS(C)(=O)=O)ccc1Cc1c2ccccc2nc2ccccc12 under Potency: inconclusive: 1.78 µM [inhibitor, full curve]
Entry for COC(=O)c1cc(CNC(=O)c2ccccc2)cc(NC(=O)c2ccccc2OC)c1 under Potency: inconclusive: 10 µM [inhibitor, single point]
